Among the data in paper doi:10.1101/278895 are binding values, retold here.

These are yes or no findings as the source states them, for the method shown. Binding seen in cells or lysates may run through a third protein. Binding can be weak; no strength is given. Sequences can lack the tags named with a protein.

The target in the assay is T1, Flag-tagged Rheb (Drosophila) (UniProt Q9VND8).
T1 sequence: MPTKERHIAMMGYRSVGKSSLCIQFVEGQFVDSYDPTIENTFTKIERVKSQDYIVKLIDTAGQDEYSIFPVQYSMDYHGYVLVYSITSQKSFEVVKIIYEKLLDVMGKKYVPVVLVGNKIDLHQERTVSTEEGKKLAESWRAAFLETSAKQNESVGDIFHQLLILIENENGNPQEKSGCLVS
Description: co-IP.

Regarding Myc-tagged Cln7 (from UniProt Q9VS51), the binding entry is on record as “binds”.
